Numbered stars: 1 amine (or outer) side, 2 acyl side, 3 side chain; on linkers, the order of the positions; unused ones are H or OH. Bridge positions count the residues as written; N and C are the ends. Square brackets hold non-standard residues; d marks the D form. Peptide text beside a SMILES is read from it. I, II: the chains in the order shown. Actinocin(9to1) = Cc1c2oc3c(C)ccc(C(=O)[*:1])c3nc-2c(C(=O)[*:2])c(N)c1=O; NMeV = CN[C@H](C(=O)O)C(C)C; Sar = CNCC(=O)O
Test system: P388 lymphocytic leukemia
Assay: In vivo P388 assay
Details: optimal nontoxic dose; ip on days 1,5,9; 10^6 P388 cells ip in CDF1 male mice
Description: ^c 10^6 P388 cells implanted intraperitoneally on day 0 into a
group of 7 CDF1 male mice. Drugs were administered, also ip, in 10%
Me2 SO--saline on days 1,5,9. Test solutions were kept at 0-4.degree
C., protected from light.
These analogues were tested for antitumor activity against P388 lymphocytic leukemia in male CDF1 hybrid mice (Table 6). The tumor was implanted intraperitoneally (ip) with 10^6 cells. The drugs were administered once daily on days 1, 5, 9 beginning 1 day after implantation.

Structure (SMILES)	Optimum Dose
Cc1c2oc3c(C)c4oc(-c5c(F)c(F)c(F)c(F)c5F)nc4c(C(=O)N[C@@H]4C(=O)N[C@H](C(C)C)C(=O)N5CCC[C@H]5C(=O)N(C)CC(=O)N(C)[C@@H](C(C)C)C(=O)O[C@@H]4C)c3nc-2c(C(=O)N[C@@H]2C(=O)N[C@H](C(C)C)C(=O)N3CCC[C@H]3C(=O)N(C)CC(=O)N(C)[C@@H](C(C)C)C(=O)O[C@@H]2C)cc1=O [Compound 4c]	0.9 mg/kg
Cc1ccc(C(=O)N[C@@H]2C(=O)N[C@H](C(C)C)C(=O)N3CCC[C@H]3C(=O)N(C)CC(=O)N(C)[C@@H](C(C)C)C(=O)O[C@@H]2C)c2c1Oc1c(c(C(=O)N[C@@H]3C(=O)N[C@H](C(C)C)C(=O)N4CCC[C@H]4C(=O)N(C)CC(=O)N(C)[C@@H](C(C)C)C(=O)O[C@@H]3C)c3nc(-c4ccccc4Cl)c(=O)oc3c1C)N2 [Compound 2c]	1.2 mg/kg
Cc1ccc(C(=O)N[C@@H]2C(=O)N[C@H](C(C)C)C(=O)N3CCC[C@H]3C(=O)N(C)CC(=O)N(C)[C@@H](C(C)C)C(=O)O[C@@H]2C)c2c1Oc1c(c(C(=O)N[C@@H]3C(=O)N[C@H](C(C)C)C(=O)N4CCC[C@H]4C(=O)N(C)CC(=O)N(C)[C@@H](C(C)C)C(=O)O[C@@H]3C)c3nc(-c4cccc(Cl)c4)c(=O)oc3c1C)N2 [Compound 2d]	0.6 mg/kg
Cc1ccc(C(=O)N[C@@H]2C(=O)N[C@H](C(C)C)C(=O)N3CCC[C@H]3C(=O)N(C)CC(=O)N(C)[C@@H](C(C)C)C(=O)O[C@@H]2C)c2c1Oc1c(c(C(=O)N[C@@H]3C(=O)N[C@H](C(C)C)C(=O)N4CCC[C@H]4C(=O)N(C)CC(=O)N(C)[C@@H](C(C)C)C(=O)O[C@@H]3C)c3nc(-c4c(F)c(F)c(F)c(F)c4F)oc3c1C)N2 [Compound 3c]	1.8 mg/kg
Cc1ccc(C(=O)N[C@@H]2C(=O)N[C@H](C(C)C)C(=O)N3CCC[C@H]3C(=O)N(C)CC(=O)N(C)[C@@H](C(C)C)C(=O)O[C@@H]2C)c2c1Oc1c(c(C(=O)N[C@@H]3C(=O)N[C@H](C(C)C)C(=O)N4CCC[C@H]4C(=O)N(C)CC(=O)N(C)[C@@H](C(C)C)C(=O)O[C@@H]3C)c3nc(-c4ccc(Cl)cc4Cl)c(=O)oc3c1C)N2 [Compound 2f]	1.2 mg/kg
Cc1c2oc3c(C)ccc(C(=O)N[C@@H]4C(=O)N[C@H](C(C)C)C(=O)N5CCC[C@H]5C(=O)N(C)CC(=O)N(C)[C@@H](C(C)C)C(=O)O[C@@H]4C)c3nc-2c(C(=O)N[C@@H]2C(=O)N[C@H](C(C)C)C(=O)N3CCC[C@H]3C(=O)N(C)CC(=O)N(C)[C@@H](C(C)C)C(=O)O[C@@H]2C)c(N)c1=O [Compound 1a, Actinomycin D, reference compound] (I: T[dV]P[Sar][NMeV] / II: T[dV]P[Sar][NMeV]; ester I:1-I:C, II:1-II:C; linker I:N-II:N via Actinocin(9to1))	0.125 mg/kg
Cc1ccc(C(=O)N[C@@H]2C(=O)N[C@H](C(C)C)C(=O)N3CCC[C@H]3C(=O)N(C)CC(=O)N(C)[C@@H](C(C)C)C(=O)O[C@@H]2C)c2c1Oc1c(c(C(=O)N[C@@H]3C(=O)N[C@H](C(C)C)C(=O)N4CCC[C@H]4C(=O)N(C)CC(=O)N(C)[C@@H](C(C)C)C(=O)O[C@@H]3C)c3nc(-c4c(F)c(F)c(F)c(F)c4F)c(=O)oc3c1C)N2 [Compound 2g]	1.8 mg/kg
Cc1ccc(C(=O)N[C@@H]2C(=O)N[C@H](C(C)C)C(=O)N3CCC[C@H]3C(=O)N(C)CC(=O)N(C)[C@@H](C(C)C)C(=O)O[C@@H]2C)c2c1Oc1c(c(C(=O)N[C@@H]3C(=O)N[C@H](C(C)C)C(=O)N4CCC[C@H]4C(=O)N(C)CC(=O)N(C)[C@@H](C(C)C)C(=O)O[C@@H]3C)c3nc(-c4ccccc4)oc3c1C)N2 [Compound 3b, 2-PHENYL-9,11-DIMETHYL-5H-OXAZOLO[4,5-b]PHENOXAZINE 4,6-BIS[CARBONYL-L-THREONYL-D-VALYL-L-PROLYLSARCOSYL-L-N-METHYL-VALINE-(TH REONINE HYDROXYL)] LACTONE]	0.9 mg/kg
Cc1ccc(C(=O)N[C@@H]2C(=O)N[C@H](C(C)C)C(=O)N3CCC[C@H]3C(=O)N(C)CC(=O)N(C)[C@@H](C(C)C)C(=O)O[C@@H]2C)c2c1Oc1c(c(C(=O)N[C@@H]3C(=O)N[C@H](C(C)C)C(=O)N4CCC[C@H]4C(=O)N(C)CC(=O)N(C)[C@@H](C(C)C)C(=O)O[C@@H]3C)c3nc(-c4ccc5ccccc5c4)c(=O)oc3c1C)N2 [Compound 2i, 3-(2-NAPHTHYL)-10,12-DIMETHYL-2H,6H-OXAZINO[3,2-b]PHENOXAZINE-2-ONE 5,7-BIS[CARBONYL-L-THREONYL-D-VALYL-L-PROLYLSARCOSYL-L-N-METHYLVALINE-(THR EONINE HYDROXYL)] LACTONE]	1.2 mg/kg
Cc1ccc(C(=O)N[C@@H]2C(=O)N[C@H](C(C)C)C(=O)N3CCC[C@H]3C(=O)N(C)CC(=O)N(C)[C@@H](C(C)C)C(=O)O[C@@H]2C)c2c1Oc1c(c(C(=O)N[C@@H]3C(=O)N[C@H](C(C)C)C(=O)N4CCC[C@H]4C(=O)N(C)CC(=O)N(C)[C@@H](C(C)C)C(=O)O[C@@H]3C)c3nc(-c4ccc(Cl)cc4)c(=O)oc3c1C)N2 [Compound 2e]	0.6 mg/kg
Cc1nc2c(C(=O)N[C@@H]3C(=O)N[C@H](C(C)C)C(=O)N4CCC[C@H]4C(=O)N(C)CC(=O)N(C)[C@@H](C(C)C)C(=O)O[C@@H]3C)c3c(c(C)c2o1)Oc1c(C)ccc(C(=O)N[C@@H]2C(=O)N[C@H](C(C)C)C(=O)N4CCC[C@H]4C(=O)N(C)CC(=O)N(C)[C@@H](C(C)C)C(=O)O[C@@H]2C)c1N3 [Compound 3a]	1.2 mg/kg
Cc1ccc(C(=O)N[C@@H]2C(=O)N[C@H](C(C)C)C(=O)N3CCC[C@H]3C(=O)N(C)CC(=O)N(C)[C@@H](C(C)C)C(=O)O[C@@H]2C)c2c1Oc1c(c(C(=O)N[C@@H]3C(=O)N[C@H](C(C)C)C(=O)N4CCC[C@H]4C(=O)N(C)CC(=O)N(C)[C@@H](C(C)C)C(=O)O[C@@H]3C)c3nc(-c4ccccc4)c(=O)oc3c1C)N2 [Compound 2b]	0.6 mg/kg
Cc1c2oc3c(C)c4oc(-c5ccccc5)nc4c(C(=O)N[C@@H]4C(=O)N[C@H](C(C)C)C(=O)N5CCC[C@H]5C(=O)N(C)CC(=O)N(C)[C@@H](C(C)C)C(=O)O[C@@H]4C)c3nc-2c(C(=O)N[C@@H]2C(=O)N[C@H](C(C)C)C(=O)N3CCC[C@H]3C(=O)N(C)CC(=O)N(C)[C@@H](C(C)C)C(=O)O[C@@H]2C)cc1=O [Compound 4b, 2-PHENYL-9,11-DIMETHYL-8-OXO-8H-OXAZOLO[4,5-b]PHENOXAZINE 4,6-BIS[CARBONYL-L-THREONYL-D-VALYL-L-PROLYLSARCOSYL-L-N-METHYLVALINE-(THR EONINE HYDROXYL)] LACTONE]	0.75 mg/kg
CCCCCCc1nc2c(C(=O)N[C@@H]3C(=O)N[C@H](C(C)C)C(=O)N4CCC[C@H]4C(=O)N(C)CC(=O)N(C)[C@@H](C(C)C)C(=O)O[C@@H]3C)c3c(c(C)c2oc1=O)Oc1c(C)ccc(C(=O)N[C@@H]2C(=O)N[C@H](C(C)C)C(=O)N4CCC[C@H]4C(=O)N(C)CC(=O)N(C)[C@@H](C(C)C)C(=O)O[C@@H]2C)c1N3 [Compound 2h]	1.2 mg/kg

From patent US4562176A, “Method and composition for treating cancer” (priority 1985, dated 1985)
